We go through 68 sequences from PubChem BioAssay AID1347426 (Functional Genomics Laboratory (NCATS/FGL), 2020).

Among all 31,000 sequences or so, about 1,400 (4.5%) were called active.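 Rule for the calls: active = median seed-adjusted z-score above 1 or below -1; inactive = the rest.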 Some of the results follow.

The assay can be described thus: Novel Modifiers of Survival Motor Neuron (SMN) Protein: Gene Identification via Genome-wide siRNA Screen.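 Note: luminescence tracks full-length SMN protein made from the SMN2 reporter.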 The settings on record: HEK293T SMN2-luciferase reporter, siRNA knockdown, 72 h; actives lie on both sides. The procedure, abridged:
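Genome-wide siRNA screen (10418 genes, 3 siRNAs each, 1 pmol per well) by reverse transfection in HEK293T cells stably carrying an SMN2-luciferase reporter; luminescence after 72 hours, normalized to negative-control siRNA, log10-transformed, MAD-scored.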
(A reporter such as luciferase makes a cellular process visible.)
For the sequence GGAGGAUACAGAUCACGUUTT against SFRS10, the median seed-adjusted z-score is inactive: -0.071.
The figure for CGAAAGAACUCAUGAGAGATT against ZNF263 is inactive: 0.397.
Turning to GAUCUCAAAUCAGAGUUAATT against ANXA7, the median seed-adjusted z-score is inactive: 0.671.
In the case of CUGUUGCUCUUCAUACUGATT against MCM2, the median seed-adjusted z-score was inactive: 0.
For the sequence GACCCUGACUUUUAUCAAUTT against TBC1D25, the median seed-adjusted z-score was inactive: 0.0296.
Consider GCACCAUUACUAUAGAGGATT against PTH2R, for which the median seed-adjusted z-score is inactive: -0.492.
With GGACGGCCCAAAUCCAAAATT against TADA3L the figure was inactive: 0.00625; with GAACCAUACAUACUACAGATT against WDR31, inactive: 0.796.
With CCUUCUACAGGAUCUCCAATT against ADRA1A, the median seed-adjusted z-score was active: -1.06.
Regarding CACUGGAUUUGAGAGGUUATT against ABHD7, the median seed-adjusted z-score is inactive: -0.301.
On to GCAAUUCAGCAACUACGAATT against STX18, for which the median seed-adjusted z-score is inactive: -0.151.
As for CUGUGAUUGUAGUAGAUCATT against SLC19A3, the median seed-adjusted z-score is inactive: -0.0232.
On to GAGGCUCAAUGUUACACCATT against ACAT1, for which the median seed-adjusted z-score was inactive: -0.848.
For CUGAUAAAGUGGGUCAACATT against TNFRSF10B, the median seed-adjusted z-score was inactive: 0.064.
As for GGACCACAGUCAUACUCCATT against NAE1, the median seed-adjusted z-score was inactive: -0.453.
With AUAUAUAAGUUGUGCUAUATT against UBE2V1, the median seed-adjusted z-score was inactive: 0.745.
For GGGAGUUUCUAUGCAGCGATT against SELO, the median seed-adjusted z-score was inactive: 0.0973.
Consider CCUUGGAGGAGAUCGCUGATT against TEKT2, for which the median seed-adjusted z-score was inactive: -0.349.
The figure for CAGCCAUGAUAAUAAAGCUTT against RARRES2 is inactive: -0.125.
On to AGGUGUCCGUUGAACUGGATT against CPSF4, for which the median seed-adjusted z-score is inactive: 0.298.
In the case of CAAGUUCGACACCACCUUUTT against SIRT6, the median seed-adjusted z-score is inactive: 0.0126.
GCCUGACUGUCCCUACAAATT against B4GALNT3: the median seed-adjusted z-score was inactive: -0.021.
In the case of CCAAGAUGACUGUGAAUAATT against POLDIP3, the median seed-adjusted z-score is inactive: 0.108.
CCAAGCAACUGAUCUAUUUTT against SLCO2A1: the median seed-adjusted z-score is inactive: -0.0778.
With CCUUCAAUGUGGGUUAUCATT against DEGS1 the figure was inactive: 0.0268; with GCAGUACACGAGAAAGUCATT against 1-Sep, inactive: 0.0103.
For the sequence CGUCCAUCUUCGAUGCUAATT against GAPDHS, the median seed-adjusted z-score was inactive: -0.674.
In the case of GCACCCUAGUUCUACCUCATT against CDKN1A, the median seed-adjusted z-score was inactive: 0.158.
With CGUGCGUCUUGUGAGCAGATT against HLA-DQB1 the figure was inactive: 0.454.
Consider GCAUAGUUAUGGAAGGAUATT against CENTB2, for which the median seed-adjusted z-score was inactive: 0.
Take CCUUCUGUAGGAUGCAUUUTT against LY6G5B: the median seed-adjusted z-score was active: -1.29.
The figure for GGAAAGGUAAAGAUGCUAATT against SCIN is inactive: 0.509; for CCAUGCCCUAUGUUAAGAATT against RRM2B it is inactive: -0.128.
With GGAAGGGUCUGCAUCACAATT against GPI, the median seed-adjusted z-score was inactive: -0.122.
With GAAACAAGCGUAUUAAAGATT against ZNF468, the median seed-adjusted z-score was inactive: -0.0435.
For CCACAGGACUCAAGGCACATT against ZNF697, the median seed-adjusted z-score was inactive: 0.0503.
With AGCCCUCACUUCUACAACATT against FOXI1 the figure was inactive: -0.217.
As for CGUUACUUUUCCAUCACAATT against CHRM5, the median seed-adjusted z-score is inactive: -0.553.
With GCAUUAUGCCCAAACCUAUTT against ZNF438 the figure was inactive: 0.165; with CACUAUACAGACUAAGUUUTT against PCDHA2, inactive: 0.803; with GGCGAACAGUUCUACAUGUTT against IFT57, active: -1.1.
With CAGAGUCUCUUCCAACGAATT against TINAG, the median seed-adjusted z-score is inactive: 0.374.
For the sequence GCCUCGUGAUGUUAACAGATT against SLC6A11, the median seed-adjusted z-score was inactive: -0.0369.
On to GCCUAGAGCUCUUUCGUGATT against TRIM7, for which the median seed-adjusted z-score is inactive: -0.845.
GUGUACAGGUUAAAGUUAATT against TOP3A: the median seed-adjusted z-score was inactive: 0.474.
On to GUACAACCAAUAUAACAAATT against TERF2, for which the median seed-adjusted z-score is inactive: 0.246.
Regarding GUUCCGAAAUAAUUUGAAATT against SIL1, the median seed-adjusted z-score is inactive: 0.0292.
Consider CCAUCCUUAGAGUUCCUUATT against SLC23A3, for which the median seed-adjusted z-score was inactive: -0.254.
With GCACGAAUGGUUCCAGUGATT against KLB, the median seed-adjusted z-score was inactive: 0.221.
As to UCACUGGGAACUUCACUAATT against MIP, the median seed-adjusted z-score was inactive: 0.702.
In the case of GAGACAAAAUUACAGGACATT against ELAVL4, the median seed-adjusted z-score was inactive: -0.0523.
On to CACUAGUCGUUAUGAUGGATT against DBT, for which the median seed-adjusted z-score is inactive: -0.976.
As to GAAUUUGCGAUGUACUUAATT against CSNK1A1, the median seed-adjusted z-score was inactive: -0.608.
Turning to AGAUGUACAUCCUCGUGCATT against ELFN2, the median seed-adjusted z-score is inactive: -0.0888.
For the sequence GACGAAGAGUUGACUGGAATT against NUP85, the median seed-adjusted z-score is inactive: 0.948.
Take GGUACCUUCUCGCUCAUCATT against DLL4: the median seed-adjusted z-score is inactive: 0.299.
With CACUCGAAGCAGUUUGGAATT against SMS, the median seed-adjusted z-score is inactive: 0.186.
The figure for ACGCUUACAUCAUCAGCUATT against EHD2 is inactive: 0.0989; for GGCAUAUGGUCGGAGUUCATT against ZNF667 it is inactive: -0.101; for CCUUGACCAUGAAAAAGAATT against ZNF704 it is inactive: -0.15.
As for GCACCGUGGUGUCAACCAUTT against KCNK12, the median seed-adjusted z-score is active: 1.04.
Regarding GCACAGGUUUCACCAGCAATT against CREB5, the median seed-adjusted z-score is inactive: -0.0542.
The figure for CCCUUGUAGUGAAACGGAATT against CYP4F8 is inactive: 0.756; for GAUUUCUAGGCAUCCCGUATT against ARSA it is inactive: 0.0938.
With GCAUGGAGGAUUACUGUGATT against SRGAP2 the figure was inactive: 0.0323.
GCAUUGAGACUACAGGGAATT against SLC6A18: the median seed-adjusted z-score is inactive: 0.148.
As for GGUGGGCAAUAAAAGUGAUTT against DIRAS3, the median seed-adjusted z-score is inactive: -0.419.
As to CCCUCUGACAAAUAUGAAATT against HECTD3, the median seed-adjusted z-score was inactive: 0.
